Test results published in publication PMC11648614.
No constants are given. Whether binding was seen depends on the method and setting. Some binding calls cover weakened binding; strength is not graded here.

Chains of the proteins cited; added tags and fusions are not shown. Lines headed by an entry give the natural chain unless they say otherwise; changes in a name come on top.
UniProt P60953: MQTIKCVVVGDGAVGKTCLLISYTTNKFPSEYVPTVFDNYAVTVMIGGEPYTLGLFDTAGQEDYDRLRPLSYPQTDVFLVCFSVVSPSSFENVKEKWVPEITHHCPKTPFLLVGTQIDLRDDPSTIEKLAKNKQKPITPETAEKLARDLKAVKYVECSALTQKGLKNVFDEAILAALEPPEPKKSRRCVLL

Target: Cdc42 (his-tagged, human constitutively active mutant Q61L) (human) (UniProt P60953)
Experiment: recruitment to a supported lipid bilayer, confocal microscopy; 1 uM human His-Cdc42 incubated 10 min on SLBs containing 0.1 to 5% DGS-NTA-Ni, unbound Cdc42 washed away 3x with SLB buffer; C. elegans WSP-1 (100 nM, 10% 488-tagged) added in actin polymerization buffer containing 150 mM KCl; both purified

B1: C. elegans N-WASP (WSP-1) (protein, UniProt Q17795 1-607)
chain: MSVYPPTPTMSMMNGGVDRKRAKRPPNVGSKELNSQENEMLFALVGSEAVCLTAAVVQLLKSDRGAWRVDLPHGVISLVKDYAQRAYFLRIFDILEERIVWDFKLYKAFRAQSFPQCRKLLAFEQMENGEDGVVIGLNFFSEYEAAEFKEHLERRHAQERKSTSTTRPAHPGMPIVVSSGIGSTPTRQFEITQAYGGTIRGPPMAIGGGQGITQMGTMAAAPQSHTHTDGNASSSGSWFRKDKNKKKDKKSKIKKEDISNPTNFQHKAHVGWNQDSGFSNTVYDDDMDEATKNILKAAGLESNNLNEDDKKFVKKFIAKNYDKYVSVGSLDPSQISSPLPPPIQQHPQMNQSWNQTPVRQYKPSFPSSAPIGSGASSYSTPAAPPPPTRVESHGLAPARPPPPPPSSGTRGIAPSRPLPQAPNYGTPENRPHAVPPPPPPPPPQSFGMAPISSAAPPPPPPPPPMGLPAVGAGAPPPPPPPPPSGAGGPASVLAKLPPAQDGRSNLLAEIQAGKQLRSVQQTADSPKSAGGDARGDVMAQIRQGAQLKHVDAAAEQERRKSTTSGAAGMGGLAGALAKALEERRMNMGIDDTSDDDDDEDDKNEWSD
modifications: 10% 488-tagged
binding: binds
